The whole screen tested about 200,000 compounds, of which about 25 (0.01%) were called active. This list was built around the results that the source calls inconclusive (neither active nor inactive); the mix of calls is not that of the screen. The call rests on the fitted dose curve; in most records, active means well fitted inhibition curve with a large enough effect in the signal ratio, with a control signal flat (not every such curve was filed as active); inconclusive means small, poorly fitted or top-dose-only effect, or effect the other way, or a change in a side signal; inactive means flat fitted curve, though single readings scatter; the % refers to the signal ratio. A potency beside an inconclusive call is a rough fit, not a confirmed value.
Assay: qHTS Assay for Modulators of Lamin A Splicing
Conditions: HeLa LMNA splicing GFP/RFP minigene ratio, 48 h; ratio change, negative = inhibition: at 46.1 µM (top of the series) unless noted
Excerpt: NCGC Assay Overview: Hutchinson-Gilford Progeria Syndrome (HGPS) is a pediatric premature aging disease caused by a spontaneous mutation in the lamin A/C (LMNA) gene. The mutation activates a cryptic splice site in the LMNA pre-mRNA which results in production of a pre-lamin A protein that cannot be processed properly. The mutant protein accumulates in the nucleus and negatively affects numerous cellular functions. Correction of the splicing defect in HGPS patient cells using a targeted oligonucleotide (exo11) leads to reversal of the cellular disease phenotypes. To identify small molecule modulators of aberrant LMNA splicing, a homogenous assay was constructed in HeLa cells that used a GFP containing minigene to report on correction of aberrant splicing in lamin A and a RFP (DsRed2) to report on cell viability, uniformity and nonspecific effects on the assay signal. This assay was adapted to laser-scanning microplate cytometry (Acumen, TTP Labtech) where miniaturization of the assay to a 1,536-well plate format was possible. References: Bowen, W. P.; Wylie, P. G. Application of Laser-Scanning Fluorescence Microplate Cytometry in High Content Screening. Assay Drug Dev Technol 2006;4:209-221. Scaffidi P, Misteli T. Reversal of the cellular phenotype in the premature aging disease Hutchinson-Gilford progeria syndrome. Nat.
NCGC Assay Protocol Summary: Reagents/Controls: Stable clones expressing DsRed2 and lamin A-EGFP were generated by Cell and Molecular Technologies in S3 HeLa cells. HeLa cells were prepared for the assay when they were 70-90% confluent. The cells were counted and resuspended in Opti-MEM I (no phenol red; Gibco), 2% FBS, 1% penicillin/ streptomycin (Gibco) at concentration of 120 cells/uL concentration. The suspension was passed through a Falcon basket filter with pore size 40um (Beckton Dickson). Control titrations: column […] 1536-well plate contained a sixteen point titration (1:2 dilutions) in duplicate of ancitabine (Sigma: A8598) beginning at 40 uM final concentration. Column 2 contained a sixteen point titration (1:2 dilutions) of cycloheximide beginning at 1.4 mM final concentration. Column 3 contained ancitabine at 40 uM and column 4 contained was the vehicle control (0.5% DMSO final concentration). Assay Steps: 5 uL of HeLa cells were plated in Aurora LoBase black clear bottom (cyclic-olefin polymer) 1536-well plates at a final density of 600 cells/well. Controls and library compounds were added with a 1536-well pin array using the Kalypsys pin-tool. The plates were then incubated for 48 hrs in a cell-culture incubator (37 °C; 5% CO2, 98% humidity). Following incubation the plates were read on the Acumen Explorer using the 488 nm laser. Data was collected on objects between 10 and 100 um in size. Cell objects were defined by a 15 um width x 10 um depth filter. The ratio of the total object intensity in PMT1 (500-530 nm emission; GFP) over PMT3 (575-640 nm emission; RFP) was calculated for analysis. Keywords: NIH Roadmap, MLSCN, MLI, MLSMR, qHTS, NCGC, lamin A, Progeria, RNA splicing.
On the % scale 0 is the no-effect control and ±100 the full control effect; potency means the concentration at half of the fitted maximal effect.

| Compound | ratio change, negative = inhibition | Potency |
| --- | --- | --- |
| NC(=O)CCCCC1CCSS1 (stereo not drawn) | inconclusive: -4.32% | – |
| CCN(CCNC(=O)C1CCN(Cc2nc(-c3cccc(Cl)c3)oc2C)CC1)c1ccccc1 | – | inconclusive: 35.5 µM [falling, single point] |
| CC(C)OCCCNS(=O)(=O)c1ccc2c(c1)OCCO2 | inactive | – |
| CC(C)c1ccc(S(=O)(=O)/N=C2/C=CC(=O)c3ccccc32)cc1 | inactive | – |
| CC(=O)c1cc(-c2nc3ccccc3n2C)n(C)c1 | inconclusive: -9.21% | – |
| CCn1ccnc1C(O)c1ccc(N(C)C)cc1 (stereo not drawn) | inactive | – |
| CCOCCCNc1ncnc2c1cnn2-c1ccc(C)c(C)c1 | inconclusive: -31% [at 46 µM] | – |
| Cc1ccc2nc(NC(=O)C3CCN(S(=O)(=O)c4cnc[nH]4)CC3)sc2c1 | – | inconclusive: 35.5 µM [fluorescent, single point] |
| COc1nc(N(c2ccccc2)c2ccccc2)nc(-n2ccnc2)n1 | inconclusive: -2.51% | – |
| COc1cc(C2C(C(C)=O)=C(C)Nc3ncnn32)ccc1O (stereo not drawn) | inactive | – |
| O=C(O)c1ccc(C[n+]2c(-c3ccccc3)csc2Nc2ccccc2)cc1 | inactive | – |
| CCn1c(COc2ccccc2C)nnc1SCC(=O)NC1CCCC1 | inconclusive: 1.56% | – |
| COC(=O)c1ccc(C(NC(=O)OCc2ccccc2)/C(F)=C/[C@@H](C)C(=O)NCc2ccc(OC)c(OC)c2)cc1 (stereo partly drawn) | inactive | – |
| CCOc1ccc(CNC(=O)C2CCCN(S(=O)(=O)c3ccc4c(ccn4C)c3)C2)cc1 (stereo not drawn) | inactive | – |
| COC(=O)c1sc(=S)n(-c2cc(F)ccc2F)c1N | inactive: 7.52% [at 0.0737 µM] | – |
| CCOc1cccc2cc(C(=O)NCCC3=CCCCC3)c(=O)oc12 | inconclusive: 19.1% [at 46 µM] | – |
| CCOC(=O)C1=C(O)/C(=C/c2ccccn2)SC1=Nc1ccc(Cl)cc1 | inconclusive: -12.1% | – |
| CCOc1ccccc1NC(=O)Cn1cnc2c(cnn2-c2ccc(C)c(C)c2)c1=O | inconclusive: -6.22% | – |
| CCCCCCOc1ccc(C2C(=O)N(C3CCCCC3)CC(=O)N2CCC)cc1 (stereo not drawn) | inconclusive: -17% [at 46 µM] | – |
| Cc1ccc(NC(=O)C(C)c2cccc(C(=O)c3ccccc3)c2)cc1 (stereo not drawn) | – | inconclusive: 8.91 µM [fluorescent, partial curve] |
| Cc1cccc(N2CCN(C(=O)Nc3cn(CC(C)C)c(=O)c4ccccc34)CC2)c1C | inconclusive: -19.3% [at 46 µM] | – |
| COc1ccc(/C=C/C(=O)NC(=S)NNC(=O)c2ccco2)cc1 | – | inconclusive: 8.91 µM [falling, partial curve] |
| Cc1cccc(N2CCN(C(=O)c3cccc(S(=O)(=O)N4CCc5ccccc5C4)c3)CC2C)c1 (stereo not drawn) | – | inconclusive: 10 µM [fluorescent, partial curve] |

Exported with each value named: two of the compounds above
COC(=O)c1sc(=S)n(-c2cc(F)ccc2F)c1N
  ratio change, negative = inhibition: inactive: 7.52% [at 0.0737 µM]
CCOc1cccc2cc(C(=O)NCCC3=CCCCC3)c(=O)oc12
  ratio change, negative = inhibition: inconclusive: 19.1% [at 46 µM]

— PubChem BioAssay AID1487 (National Center for Advancing Translational Sciences (NCATS), 2009)
